Patent US5955632A, “Seco-d steroids active on the cardiovascular system, processes for their preparation and pharmaceutical compositions containing them” (Sigma-Tau Industrie Farmaceutiche Riunite S.p.A., priority 1996, dated 1999)
Where a name gives a salt, the structure may show the parent alone. At least one read-out could not be matched to a standard name with certainty.

What was measured:
[1] = target: T1, Na^+,K^+ -ATPase (Canis lupus familiaris, UniProt P50997); test: displacement of the specific ^3H-ouabain binding from the purified Na^+,K^+-ATPase receptor; conditions: ^3H-ouabain displacement
T1 construct: from tissue; the cited Jorgensen 1974 method uses outer medulla of mammalian kidney (own knowledge)
Description: (§1) To test the affinity for the receptor site of the Na^+,K^+ -ATPase and the agonist or antagonist activity on the enzyme, the following tests were used:
a) displacement of the specific ^3 H-ouabain binding from the Na^+,K^+ -ATPase receptor purified according to Jorghensen (Jorghensen P., BBA, 1974, 356, 36) and Erdmann (Erdmann E. et al., Arzneim. Forsh, 1984, 34, 1314);

[2] = target: T1, Na^+,K^+ -ATPase; assay type: biochemical; conditions: purified Na^+,K^+-ATPase, ^32P-ATP hydrolysis
Description: as §1
b) inhibition of the activity of the purified Na^+,K^+ -ATPase measured as % of hydrolysis of ^32 P-ATP in presence and in absence of the tested compound (Doucet A. et al., Am. J. Physiol., 1986, 251, F851).

C[C@@H](C/C=N/OCCN)[C@@]1(C)CC[C@H]2[C@@H](CC[C@@H]3C[C@@H](O)CC[C@@]32C)C1=O [Comp. I-ae, E-17β-Methyl-15-[(2-aminoethoxy)imino]-5β-14,15-seco-3β-hydroxy-androstan-14-one oxalate]
Binding ^3 H-Ouab. Displacement log IC50 [1]: 7.0
Inhibitory Activity log IC50 [2]: 6.0
